The assay addresses Cortactin (human (endogenous in MDA-MB-231)) (UniProt Q14247). Put plainly: proximity ligation; in situ PLA (Duolink) in MDA-MB-231 cells transfected with MYLK-HA, seeded on gelatin coated coverslips, fixed; primary antibodies as for immunofluorescence, anti-rabbit plus and anti-mouse minus PLA probes.

Sequences of proteins named here, by UniProt entry; tags and fusion partners are left off.
UniProt Q14247: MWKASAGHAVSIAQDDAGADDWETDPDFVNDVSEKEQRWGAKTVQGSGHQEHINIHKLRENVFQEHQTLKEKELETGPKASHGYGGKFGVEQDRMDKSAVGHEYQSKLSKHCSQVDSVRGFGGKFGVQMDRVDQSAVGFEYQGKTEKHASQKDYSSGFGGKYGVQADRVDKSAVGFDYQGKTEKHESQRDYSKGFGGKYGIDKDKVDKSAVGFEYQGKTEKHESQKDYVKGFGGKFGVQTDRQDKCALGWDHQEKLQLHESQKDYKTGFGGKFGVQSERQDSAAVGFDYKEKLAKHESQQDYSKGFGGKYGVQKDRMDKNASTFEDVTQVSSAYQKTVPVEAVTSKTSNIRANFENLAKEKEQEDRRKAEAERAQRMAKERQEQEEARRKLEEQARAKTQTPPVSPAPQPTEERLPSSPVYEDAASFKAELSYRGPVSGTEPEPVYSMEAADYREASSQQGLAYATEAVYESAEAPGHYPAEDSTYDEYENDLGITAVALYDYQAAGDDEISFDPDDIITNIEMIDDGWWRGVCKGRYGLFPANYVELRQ
UniProt Q15746: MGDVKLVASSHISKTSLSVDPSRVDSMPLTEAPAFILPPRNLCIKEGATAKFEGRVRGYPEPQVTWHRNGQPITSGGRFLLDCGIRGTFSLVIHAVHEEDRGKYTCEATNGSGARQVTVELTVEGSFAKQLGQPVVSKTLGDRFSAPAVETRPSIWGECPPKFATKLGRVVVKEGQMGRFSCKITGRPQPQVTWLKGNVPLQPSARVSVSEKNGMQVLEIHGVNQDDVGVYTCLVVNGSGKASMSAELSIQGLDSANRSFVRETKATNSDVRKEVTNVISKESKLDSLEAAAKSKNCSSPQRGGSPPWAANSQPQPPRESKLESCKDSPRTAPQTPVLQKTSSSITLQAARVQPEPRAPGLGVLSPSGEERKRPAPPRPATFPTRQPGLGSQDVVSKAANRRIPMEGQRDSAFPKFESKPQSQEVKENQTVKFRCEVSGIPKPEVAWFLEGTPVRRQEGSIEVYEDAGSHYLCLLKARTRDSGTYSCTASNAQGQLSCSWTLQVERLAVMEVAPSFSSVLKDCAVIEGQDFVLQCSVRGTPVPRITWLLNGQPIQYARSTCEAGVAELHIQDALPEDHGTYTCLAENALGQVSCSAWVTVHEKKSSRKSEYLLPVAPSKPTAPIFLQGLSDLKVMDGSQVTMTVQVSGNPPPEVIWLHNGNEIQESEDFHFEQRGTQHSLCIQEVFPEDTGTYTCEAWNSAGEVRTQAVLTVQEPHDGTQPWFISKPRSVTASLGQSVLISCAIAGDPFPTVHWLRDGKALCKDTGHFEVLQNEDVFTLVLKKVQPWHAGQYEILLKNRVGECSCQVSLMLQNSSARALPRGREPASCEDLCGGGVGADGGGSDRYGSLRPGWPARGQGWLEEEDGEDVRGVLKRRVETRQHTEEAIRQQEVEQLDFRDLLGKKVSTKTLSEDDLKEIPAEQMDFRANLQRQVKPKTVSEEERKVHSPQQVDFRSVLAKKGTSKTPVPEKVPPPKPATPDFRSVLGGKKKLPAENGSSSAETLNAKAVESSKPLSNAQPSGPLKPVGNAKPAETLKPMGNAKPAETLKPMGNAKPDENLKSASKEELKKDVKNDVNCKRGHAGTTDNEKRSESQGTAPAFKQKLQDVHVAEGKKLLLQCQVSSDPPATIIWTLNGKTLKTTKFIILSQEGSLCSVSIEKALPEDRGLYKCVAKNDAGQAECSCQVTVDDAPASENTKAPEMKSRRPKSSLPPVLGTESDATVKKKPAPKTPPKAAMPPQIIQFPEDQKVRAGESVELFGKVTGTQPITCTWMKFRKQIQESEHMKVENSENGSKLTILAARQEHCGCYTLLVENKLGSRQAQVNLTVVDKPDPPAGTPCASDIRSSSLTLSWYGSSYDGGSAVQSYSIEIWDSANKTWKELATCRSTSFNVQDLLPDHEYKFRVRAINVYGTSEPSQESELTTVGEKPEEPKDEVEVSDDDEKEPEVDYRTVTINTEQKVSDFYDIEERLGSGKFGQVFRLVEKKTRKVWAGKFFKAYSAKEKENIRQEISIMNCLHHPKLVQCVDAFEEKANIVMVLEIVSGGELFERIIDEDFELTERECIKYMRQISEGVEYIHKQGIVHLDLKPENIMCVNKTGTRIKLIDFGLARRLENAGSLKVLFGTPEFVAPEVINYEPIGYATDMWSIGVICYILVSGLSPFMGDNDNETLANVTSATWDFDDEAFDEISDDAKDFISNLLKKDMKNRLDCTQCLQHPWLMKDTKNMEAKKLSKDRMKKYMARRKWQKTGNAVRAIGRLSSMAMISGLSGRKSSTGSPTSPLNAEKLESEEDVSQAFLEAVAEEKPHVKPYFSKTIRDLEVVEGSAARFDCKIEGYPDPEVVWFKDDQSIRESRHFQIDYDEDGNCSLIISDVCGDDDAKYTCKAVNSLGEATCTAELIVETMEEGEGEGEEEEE

These are yes or no findings as the source states them, for the method shown. In cells and extracts the contact can be indirect. Some entries that bind do so weakly or less than the wild type.

As to “HA-tagged MYLK (myosin light chain kinase) (from UniProt Q15746 1-1914) (enzyme)”, the binding entry is “binds”.
